The other results are listed elsewhere or left out. These are further read-outs of the screen, such as a control signal, another cell line or another target. No call is given for them. Most of these compounds were active or inconclusive in the main read-out, so they are no random draw. Words in brackets tell the shape of the fitted curve; partial curves, single points and poor fits give uncertain potencies.
Assay: qHTS Assay for Modulators of Lamin A Splicing
Conditions: HeLa LMNA splicing GFP/RFP minigene ratio, 48 h
Summary of the method: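 S3 HeLa cells stably expressing lamin A-EGFP splicing minigene plus DsRed2, 600 cells/well, 48 h compound exposure at 37C. Laser-scanning cytometry; analysed as GFP (500-530 nm)/RFP (575-640 nm) total intensity ratio; 0.5% DMSO vehicle.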

[1] = measured here: GFP splicing reporter channel
[2] = measured here: RFP viability control channel

Structure (SMILES)	AC50 [1]	AC50 [2]
CCn1c(SCC(=O)Nc2cc(C(C)(C)C)nn2-c2ccccc2)nnc1-c1cccs1	35.5 µM [rising, single point]	35.5 µM [rising, single point]
Cc1cccc(N2CCN(C(=O)c3cnn(-c4ccccc4)c3C3CCN(C(=O)OC(C)(C)C)CC3)CC2)c1C	–	35.5 µM [rising, single point]
CCN(CC)c1ccc(/C=C(\C#N)c2nc(-c3cccs3)c(NC(C)=O)s2)cc1	3.55 µM [falling, partial curve, poor fit]	2.82 µM [falling, single point]
CC(c1cc2ccccc2s1)N(O)C(N)=O (stereo unspecified)	0.794 µM [falling, single point]	–
NS(=O)(=O)c1ccc(CCNCc2cc(Br)ccc2OCc2ccccc2)cc1	11.2 µM [rising, partial curve, poor fit]	22.4 µM [rising, partial curve]
C=C1CCC2C(CC2(C)C)C(=C)CC/C1=N/O (stereo unspecified)	5.01 µM [rising, single point]	–
CNc1nc(-c2ccoc2)nc2ccccc12	11.2 µM [falling, partial curve]	–
Cn1nnnc1Sc1ccc([N+](=O)[O-])cc1Cl	–	11.2 µM [rising, partial curve]
Nc1ccccc1Sc1ccc(C(F)(F)F)cc1[N+](=O)[O-]	–	0.00447 µM [falling, full curve, poor fit]
O=C(c1cccc(S(=O)(=O)NCc2ccccc2)c1)N1CCN(Cc2ccccc2)CC1	–	15.8 µM [rising, single point]
CCOC(=O)C1C(=O)NC(N2CCc3ccccc32)=NC1c1ccccc1 (stereo unspecified)	–	3.16 µM [rising, partial curve, poor fit]
O=C(Nc1ccccc1F)C(=Cc1sc(N2CCOCC2)nc1-c1ccccc1)C(=O)Nc1ccccc1F	–	2.82 µM [rising, full curve, poor fit]
COc1ccc2c(c1)c(CC(=O)Nc1cc(C)ccc1C)c(C)n2C(=O)c1ccc(Cl)cc1	–	5.62 µM [rising, single point]
Cc1ccc(-n2nnnc2SCC(=O)Nc2cccc(NC(=O)c3ccco3)c2)cc1C	–	5.62 µM [falling, single point]
CN(Cc1ccccc1)S(=O)(=O)c1nnc(NC(=O)c2ccccc2Cl)s1	–	3.55 µM [rising, full curve, poor fit]
Cc1ccc(/C=C/C(=O)c2c(C)cc(C)[nH]c2=O)cc1	12.6 µM [falling, partial curve]	22.4 µM [falling, single point]
CCCCN(c1ccccc1)c1ncnc(N)c1[N+](=O)[O-]	–	5.62 µM [falling, partial curve, poor fit]
COc1cccc(/C=N/n2c(SC)nnc2-c2ccccc2)c1O	–	12.6 µM [rising, single point]
COc1ccc(-c2nc(Cn3c(=O)cc(-c4ccccc4)c4c(C)nn(C)c43)c(C)o2)cc1OC	–	0.0562 µM [rising, full curve, poor fit]
Cc1nccc(-c2ccc(-n3c(C)ccc3C)cc2)n1	35.5 µM [rising, single point]	35.5 µM [rising, single point]
CC1=C(/C=C/C(C)=C/C=C/C(C)=C/C(=O)Nc2ccc(O)cc2)C(C)(C)CCC1	35.5 µM [falling, single point]	12.6 µM [falling, partial curve, poor fit]
O=C(NCCCN1CCOCC1)c1cc(-c2ccc(Br)cc2)on1	7.94 µM [rising, partial curve]	7.08 µM [rising, full curve]
N/C(=N\OC(=O)COc1ccc(Br)cc1)c1ccncc1	7.94 µM [rising, partial curve]	–
C[C@H](NC(=O)Nc1ccccc1F)C(=O)O	–	0.00501 µM [falling, full curve, poor fit]
CS(=O)(=O)C1=NSC2=NC(=O)/C(=C\c3cccn3-c3ccccc3Cl)C(=N)N21	0.224 µM [rising, single point]	–

Structure (SMILES)	AC50 [1]	AC50 [2]
COC(=O)c1ccc(OC)c(CSc2nnc(COc3ccc(Cl)cc3)o2)c1	14.1 µM [rising, single point]	22.4 µM [rising, single point]
Cc1occc1-c1nnc(SCC(=O)Nc2ccccc2)n1C(C)c1ccccc1 (stereo unspecified)	31.6 µM [rising, single point]	–
CCc1c(C)nc2ncnn2c1N1CCCC(C(=O)NCc2ccc3c(c2)OCO3)C1 (stereo unspecified)	35.5 µM [rising, single point]	35.5 µM [rising, partial curve, poor fit]
Cc1ccc2nc(-c3ccc(SCC(=O)Nc4ccc5c(c4)OCCO5)nc3)[nH]c2c1	–	35.5 µM [rising, single point]
CCOC(=O)Cn1c(S(=O)(=O)Cc2cccc(F)c2)nc(-c2ccccc2)c1-c1ccccc1	–	11.2 µM [rising, single point]
CCNC(=S)NNC(=O)c1cc(-c2cccc(OC)c2)nc2ccccc12	7.08 µM [rising, partial curve]	11.2 µM [rising, partial curve]
COc1ccc(C(=O)N2CCN(c3ccc([N+](=O)[O-])c(NCCc4ccc(OC)c(OC)c4)c3)CC2)cc1	0.398 µM [rising, full curve, poor fit]	0.501 µM [rising, full curve]
Cc1ccc(NC(=O)c2cc(S(=O)(=O)N3CCCCCC3)ccc2F)cc1F	39.8 µM [rising, partial curve, poor fit]	10 µM [rising, partial curve]
CCN1CCc2c(sc(-n3cccc3)c2C(C)NC(=O)Nc2cc(Cl)c(OC)cc2OC)C1 (stereo unspecified)	35.5 µM [rising, single point]	35.5 µM [rising, single point]
CCCC(=O)Nc1ccc(Cl)c(NC(=O)c2ccc(Br)o2)c1	–	15.8 µM [rising, single point]
C/C(N)=C(/C#N)C(=O)CSc1nnnn1-c1ccc(C)cc1C	–	10 µM [rising, partial curve]
Cn1cc(C(c2ccccn2)c2cn(C)c3ccccc23)c2ccccc21	–	35.5 µM [rising, single point]
COc1cc(NC(=O)CC2NCCNC2=O)cc(OC)c1 (stereo unspecified)	1.12 µM [falling, partial curve]	1.78 µM [falling, partial curve]
CCOC(=O)c1c(C)oc2ccc(OCC(N)=O)cc12	–	1.41 µM [rising, partial curve, poor fit]
Cc1cccc(N2CCN(C(=O)c3cnc4c(C)cccn4c3=O)CC2C)c1 (stereo unspecified)	0.00891 µM [falling, full curve, poor fit]	–
CCOc1ccc(OCC)c(NC(=O)CN(C)S(=O)(=O)c2cccc3nsnc23)c1	17.8 µM [rising, partial curve]	17.8 µM [rising, single point]
Cn1c(C(=O)Nc2ccc3c(c2)OCO3)cc2sccc21	–	12.6 µM [rising, single point]
CC(=O)CCc1oc2ccc([N+](=O)[O-])cc2c1-c1ccc(C)o1	4.47 µM [falling, full curve, poor fit]	–
COc1ccc(/C=N/N=C2/NC(=O)C(CC(=O)NC(N)=O)S2)cc1 (stereo unspecified)	0.0316 µM [falling, full curve, poor fit]	0.0112 µM [falling, full curve, poor fit]
CCCCOC(=O)CSC1=C(C#N)C(c2ccccc2OCC)C(C#N)C(=O)N1 (stereo unspecified)	15.8 µM [falling, partial curve, poor fit]	–
CCOC(=O)c1cccc(NC(=O)CCc2nc(-c3ccccc3F)no2)c1	–	35.5 µM [rising, single point]
CCOc1ccccc1NS(=O)(=O)c1c(C)noc1C	–	35.5 µM [rising, single point]
NCCc1ccn[nH]1	0.00355 µM [rising, full curve, poor fit]	1.12 µM [rising, partial curve, poor fit]
COc1ccc(OC)c(NC(=O)c2cccnc2Sc2cc(C)ccc2C)c1	–	28.2 µM [rising, single point]

A section from the list above, as a working copy:
Structure (SMILES)	AC50 [1]	AC50 [2]
CN(Cc1ccccc1)S(=O)(=O)c1nnc(NC(=O)c2ccccc2Cl)s1	–	3.55 µM [rising, full curve, poor fit]
Cc1ccc(/C=C/C(=O)c2c(C)cc(C)[nH]c2=O)cc1	12.6 µM [falling, partial curve]	22.4 µM [falling, single point]
CCCCN(c1ccccc1)c1ncnc(N)c1[N+](=O)[O-]	–	5.62 µM [falling, partial curve, poor fit]
COc1cccc(/C=N/n2c(SC)nnc2-c2ccccc2)c1O	–	12.6 µM [rising, single point]
COc1ccc(-c2nc(Cn3c(=O)cc(-c4ccccc4)c4c(C)nn(C)c43)c(C)o2)cc1OC	–	0.0562 µM [rising, full curve, poor fit]
Cc1nccc(-c2ccc(-n3c(C)ccc3C)cc2)n1	35.5 µM [rising, single point]	35.5 µM [rising, single point]
CC1=C(/C=C/C(C)=C/C=C/C(C)=C/C(=O)Nc2ccc(O)cc2)C(C)(C)CCC1	35.5 µM [falling, single point]	12.6 µM [falling, partial curve, poor fit]
O=C(NCCCN1CCOCC1)c1cc(-c2ccc(Br)cc2)on1	7.94 µM [rising, partial curve]	7.08 µM [rising, full curve]
N/C(=N\OC(=O)COc1ccc(Br)cc1)c1ccncc1	7.94 µM [rising, partial curve]	–
C[C@H](NC(=O)Nc1ccccc1F)C(=O)O	–	0.00501 µM [falling, full curve, poor fit]
CS(=O)(=O)C1=NSC2=NC(=O)/C(=C\c3cccn3-c3ccccc3Cl)C(=N)N21	0.224 µM [rising, single point]	–
COC(=O)c1ccc(OC)c(CSc2nnc(COc3ccc(Cl)cc3)o2)c1	14.1 µM [rising, single point]	22.4 µM [rising, single point]
Cc1occc1-c1nnc(SCC(=O)Nc2ccccc2)n1C(C)c1ccccc1 (stereo unspecified)	31.6 µM [rising, single point]	–
CCc1c(C)nc2ncnn2c1N1CCCC(C(=O)NCc2ccc3c(c2)OCO3)C1 (stereo unspecified)	35.5 µM [rising, single point]	35.5 µM [rising, partial curve, poor fit]

Source: PubChem BioAssay AID1487 (National Center for Advancing Translational Sciences (NCATS), 2009)
